Laboratory results reported in the supplement of paper PMC4635364.
Structures can show the parent of a compound that is named as a salt. This is one part of the list. Single values are uncertain here, since repeats match poorly.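 Cells: ReNCell VM human fetal ventral-midbrain neural progenitors, differentiated mitogen-free. Blinded raters compared doublecortin-stained (early neurons) or tyrosine hydroxylase-stained (dopaminergic neurons) images with untreated wells, where 0 means no change. After repeats and both raters were averaged, compounds scoring 2 or above became hits for retesting.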

Each compound was assayed on ReNCell VM (assay: dopaminergic neuron differentiation score (TH+ cell fraction vs untreated, manual image score) (score (0 to 3)); higher = more TH+ dopaminergic neuron differentiation). Conditions: library: Spectrum; 2 uM; 4 weeks; BDNF 10 ng/ml + GDNF 10 ng/ml.

Dopaminergic neuron differentiation score, inactive:
CCC[C@H](N[C@@H](C)C(=O)N1[C@H](C(=O)O)C[C@@H]2CCCC[C@@H]21)C(=O)OCC 0, CC(=O)/N=c1/sc(S(N)(=O)=O)nn1C 0, NC[C@H](O)c1ccc(O)c(O)c1 0, Cc1ccc2c(Cl)cc(Cl)c(O)c2n1 0, C[C@H](CCC(=O)O)[C@H]1CC[C@H]2[C@@H]3CC[C@@H]4C[C@H](O)CC[C@]4(C)[C@H]3C[C@H](O)[C@]12C 0, O=C(O)c1cccnc1 0, COc1ccc(CN(CCN(C)C)c2ccccn2)cc1 0, N=C(NCCCCCCNC(=N)NC(=N)Nc1ccc(Cl)cc1)NC(=N)Nc1ccc(Cl)cc1 0, C[C@](N)(Cc1ccc(O)cc1)C(=O)O [alpha-METHYL-L-TYROSINE] 0, CN1CCC[C@@H]1CCO[C@](C)(c1ccccc1)c1ccc(Cl)cc1 0, CC(COc1ccccc1)NC(C)C(O)c1ccc(O)cc1 (stereo not drawn) 0, CNCCc1ccccn1 0, CCC(=O)O[C@]1(C(=O)CCl)[C@@H](C)C[C@H]2[C@@H]3CCC4=CC(=O)C=C[C@]4(C)[C@@]3(F)[C@@H](O)C[C@@]21C 0, CN[C@@H]1[C@@H](O[C@H]2O[C@H](CO)[C@@H](N)[C@H](O)[C@H]2O)OC2C[C@@H](N)[C@@H](O[C@H]3[C@H](O)[C@@H](O)[C@H](N)C[C@@H]3N)OC2[C@@H]1O (stereo partly drawn) 0, COc1cc2ccc(=O)oc2c(OC)c1OC 0, CC(C)Nc1ncccn1 0, Cc1c(O)c(=O)ccn1C 0

Same assay, conditions: library: Tocriscreen; 2 uM; 4 weeks; BDNF 10 ng/ml + GDNF 10 ng/ml

Dopaminergic neuron differentiation score, inactive:
O=C(NCCCCN1CCN(c2cccc(Cl)c2Cl)CC1)c1ccc2c(c1)Cc1ccccc1-2 0, Fc1ccc(Cl)cc1-c1nc(Nc2ccncc2)c2nccnc2n1 0, N#Cc1c(O)c2c(-c3ccc(-c4ccccc4O)cc3)csc2[nH]c1=O 0, Nc1nc(-c2ccc(Cl)c(Cl)c2)c(-c2ccncc2)s1 [CGH 2466 dihydrochloride] 0, COc1cc(C[C@H]2C(=O)OC[C@@H]2Cc2ccc(OC)c(OC)c2)ccc1O [Arctigenin] 0, CN1CCc2cccc3c2[C@H]1Cc1ccc(O)c(O)c1-3 [(R)-(-)-Apomorphine hydrochloride] 1
